# In patent publication US8455510B2:
# For at least one compound, name, drawing or mass did not settle the structure.
# Columns and labels:
# rhabdomyosarcoma cells = conditions: in vitro; cited from earlier work
# [1] = test system: acute graft-versus-host disease (aGVHD); test: Acute graft-versus-host disease (aGVHD) mouse model; type: in vivo, C57B/6 mice; conditions: 1.5 mg/kg/d, intraperitoneal injection, FIG. 15
# Protocol: Donator: BABL/C mice; acceptor: C57B/6 mice.
# C57B/6(H-2^b) mice, female, 7 weeks old, were used as the acceptor mice to receive 8.5 Gy of total body irradiation in a Gammacell.
# After the acceptor mice received irradiation for 4 to 6 hours, the heterogenetic bone marrow transplantation was carried out.
# BABL/C(H-2^d) mice, female, 4 weeks old were used as the donator mice. The bone marrow cells in long bone of the mice limbs and the spleen lymphocytes were collected and suspended in a PBS buffer solution respectively by adjusting the cell concentration to 1×10^8.
# The two kinds of cells were mixed equivalently to prepare a mixed cell suspension. Each acceptor mouse was intravenously injected with 0.5 ml of the suspension.
# Mice were randomly divided into 3 groups with 10 mice in each group. Mice were administered once daily from the first day when the bone marrow transplantation was carried out.
# Y-31 group (1.5 mg/kg/d, intraperitoneal injection)
# (1) Body weight: weighted once daily;
# (2) The survival time of the mice after BMT was recorded.
smiles,measurement,setting,value
CO[C@H]1C[C@@H]2CC[C@@H](C)[C@@](O)(O2)C(=O)C(=O)N2CCCC[C@H]2C(=O)O[C@H]([C@H](C)C[C@@H]2CC[C@@H](O)[C@H](OC)C2)CC(=O)[C@H](C)/C=C(\C)[C@@H](O)[C@@H](OC)C(=O)[C@H](C)C[C@H](C)/C=C/C=C/C=C/1C [Rapamycin],concentration that significantly inhibits the growth of rhabdomyosarcoma cells,rhabdomyosarcoma cells,1 ng/mL
same,effect on the weight loss caused by aGVHD,[1],significantly alleviate the weight loss
